The list shows only some results of the screen, not a fair sample: it gathers some chemical classes. Other doses and runs of a compound may be missing. T/C gives the treated animals as a percentage of the vehicle group. Schedule codes are those of the source, taken here to give the interval after Q, in days (D) or hours (H), and the number of doses after X. Some T/C values are followed by the survivors on the day toxicity was checked; without a count or a note in brackets, all were alive then. Some metal complexes and salts are drawn in pieces, as in the source, so charges may not balance. Some doses were run more than once; the results are listed from low to high. Some doses have a count of surviving animals in place of a T/C: the source holds a T/C of zero for them, seemingly a mark for toxic or unscored doses. Counts of survivors are from the toxicity check, whose day is not always given; animals may have died later.
Tested on: nude mice, HT29 intrarenal xenograft, tumor weight T/C
Assay: NCI In Vivo Anticancer Drug Screen. Data for tumor model HT29;CX-1 Human Adenocarcinoma (MER+) (intrarenal inoculation) in NU/NU Swiss (nude) mice
Details: T/C endpoint: mean tumor weight change, higher T/C = larger tumour
Protocol: The antitumor activity of compounds was measured in mice bearing transplantable tumors. Survival or tumor size were measured and the results are expressed as the measurement made in the treated group (T) divided by the measurement made in the vehicle treated control group (C). The tumor model used in this assay is HT29;CX-1 Human Adenocarcinoma (MER+) (intrarenal inoculation) in NU/NU Swiss (nude) mice

[1] = dose: 50.0 mg/kg/injection, schedule: Q01DX010 (sc), vehicle: saline with Tween-80, evaluated on day 20
[2] = dose: 100.0 mg/kg/injection, schedule: Q01DX010 (sc), vehicle: saline with Tween-80, evaluated on day 20
[3] = dose: 400.0 mg/kg/injection, schedule: Q01DX010 (sc), vehicle: saline with Tween-80
[4] = dose: 300.0 mg/kg/injection, schedule: Q04DX004 (sc), vehicle: Klucel (hydroxypropylcellulose) (HPC), evaluated on day 15
[5] = dose: 600.0 mg/kg/injection, schedule: Q04DX004 (sc), vehicle: Klucel (hydroxypropylcellulose) (HPC), evaluated on day 15

[Au+].[Au+].c1ccc([PH+](c2ccccc2)c2ccccc2)cc1.c1ccc([PH+](c2ccccc2)c2ccccc2)cc1.n1n[n-]c(-c2nnn[n-]2)n1
T/C [1]: 65 % of control
T/C [2]: 65 % of control
T/C (dose: 200.0 mg/kg/injection, schedule: Q01DX010 (sc), vehicle: saline with Tween-80, evaluated on day 20): 65 % of control
survivor count [3]: 1 of 3 on day 20

[Au].[C-]#N.[C-]#N
T/C (dose: 5.0 mg/kg/injection, schedule: Q04DX004 (sc), vehicle: saline, evaluated on day 15): 2, 75, 132 % of control
T/C (dose: 10.0 mg/kg/injection, schedule: Q04DX004 (sc), vehicle: saline, evaluated on day 15): 29, 69, 120 % of control
T/C (dose: 20.0 mg/kg/injection, schedule: Q04DX004 (sc), vehicle: saline, evaluated on day 15): 7 [5 of 6 alive on day 15] and 47 % of control [5 of 6 alive on day 15]
survivor count (dose: 20.0 mg/kg/injection, schedule: Q04DX004 (sc), vehicle: saline): 2 of 6 on day 15
survivor count (dose: 40.0 mg/kg/injection, schedule: Q04DX004 (sc), vehicle: saline): 0 of 6 on day 15

CCCNC(=O)c1ccc(N(CCCl)CCCl)cc1
T/C (dose: 75.0 mg/kg/injection, schedule: Q04DX004 (sc), vehicle: Klucel (hydroxypropylcellulose) (HPC), evaluated on day 15): 76 % of control
T/C (dose: 150.0 mg/kg/injection, schedule: Q04DX004 (sc), vehicle: Klucel (hydroxypropylcellulose) (HPC), evaluated on day 15): 51 % of control
T/C [4]: 67 % of control [5 of 6 alive on day 15]
T/C [5]: 72 % of control [5 of 6 alive on day 15]

Nc1cc([As]=O)ccc1O (stereo unspecified)
T/C (dose: 12.5 mg/kg/injection, schedule: Q01DX010 (sc), vehicle: saline with Tween-80, evaluated on day 11): 88 % of control
T/C (dose: 50.0 mg/kg/injection, schedule: Q01DX010 (sc), vehicle: saline with Tween-80, evaluated on day 11): 64 % of control [2 of 2 alive on day 11]
survivor count (dose: 100.0 mg/kg/injection, schedule: Q01DX010 (sc), vehicle: saline with Tween-80): 0 of 3 on day 11

NC(=O)c1[nH]cnc1/N=N\N(CCCl)CCCl
T/C [1]: 100 % of control
T/C [2]: 128 % of control
survivor count (dose: 200.0 mg/kg/injection, schedule: Q01DX010 (sc), vehicle: saline with Tween-80): 1 of 3 on day 20
survivor count [3]: 0 of 2 on day 20

CC(=O)OC(SC(OC(C)=O)C(Cl)(Cl)Cl)C(Cl)(Cl)Cl (stereo unspecified)
T/C (dose: 100.0 mg/kg/injection, schedule: Q01DX010 (sc), vehicle: Klucel (hydroxypropylcellulose) (HPC), evaluated on day 11): 144 % of control [2 of 2 alive on day 11]
T/C (dose: 200.0 mg/kg/injection, schedule: Q01DX010 (sc), vehicle: Klucel (hydroxypropylcellulose) (HPC), evaluated on day 11): 258 % of control
T/C (dose: 400.0 mg/kg/injection, schedule: Q01DX010 (sc), vehicle: Klucel (hydroxypropylcellulose) (HPC), evaluated on day 11): 114 % of control [2 of 2 alive on day 11]
T/C (dose: 800.0 mg/kg/injection, schedule: Q01DX010 (sc), vehicle: Klucel (hydroxypropylcellulose) (HPC), evaluated on day 11): 151 % of control

ClP1(Cl)=NP(Cl)(Cl)=NP(Cl)(Cl)=NP(Cl)(Cl)=N1
T/C [4]: 97 % of control
T/C [5]: 131 % of control
T/C (dose: 1200.0 mg/kg/injection, schedule: Q04DX004 (sc), vehicle: Klucel (hydroxypropylcellulose) (HPC), evaluated on day 15): 116 % of control
T/C (dose: 2400.0 mg/kg/injection, schedule: Q04DX004 (sc), vehicle: Klucel (hydroxypropylcellulose) (HPC), evaluated on day 15): 87 % of control

ClC1CSC1
T/C (dose: 150.0 mg/kg/injection, schedule: Q04DX004 (sc), vehicle: saline with Tween-80, evaluated on day 15): 142 % of control
T/C (dose: 300.0 mg/kg/injection, schedule: Q04DX004 (sc), vehicle: saline with Tween-80, evaluated on day 15): 136 % of control
T/C (dose: 600.0 mg/kg/injection, schedule: Q04DX004 (sc), vehicle: saline with Tween-80, evaluated on day 15): 170 % of control
T/C (dose: 1200.0 mg/kg/injection, schedule: Q04DX004 (sc), vehicle: saline with Tween-80, evaluated on day 15): 92 % of control

Cc1ccc(Sc2ccc([N+](=O)[O-])cc2[N+](=O)[O-])c([N+](=O)[O-])c1
T/C (dose: 300.0 mg/kg/injection, schedule: Q04DX004 (sc), vehicle: suspension in saline, evaluated on day 15): 113 % of control
T/C (dose: 600.0 mg/kg/injection, schedule: Q04DX004 (sc), vehicle: suspension in saline, evaluated on day 15): 121 % of control
T/C (dose: 1200.0 mg/kg/injection, schedule: Q04DX004 (sc), vehicle: suspension in saline, evaluated on day 15): 82 % of control
T/C (dose: 2400.0 mg/kg/injection, schedule: Q04DX004 (sc), vehicle: suspension in saline, evaluated on day 15): 96 % of control

Reference: PubChem BioAssay AID206 (DTP/NCI, 2004)
